Measured values published in PubChem BioAssay AID330 (DTP/NCI, 2004).
The list is a part of this screen's results and no random one: it gathers some chemical classes. Not every dose and run of a compound is shown. T/C gives the treated animals as a percentage of the vehicle group. Where survival is the endpoint, this PubChem deposit counts one and a half times the control or more as active, and values a quarter to a half above the control carry no call in these data; other NCI protocols may use other cut-offs. Schedules are NCI's codes, taken here to give the interval after Q, in days (D) or hours (H), and the number of doses after X. Some entries show no survivor count and are marked so; the dose need not have been tolerated.

System: P388 leukemia ip, CD2F1 mice, survival T/C
Experiment: NCI In Vivo Anticancer Drug Screen. Data for tumor model P388 Leukemia (intraperitoneal) in CD2F1 (CDF1) mice
Conditions: higher T/C = longer survival

CC(=O)OCC12CCC(C)=CC1OC1C(O)C(OC(C)=O)C2(C)C12CO2 (stereo not drawn)
T/C (T/C endpoint: mean survival time, dose: 0.03 mg/kg/injection, schedule: Q01DX010 (ip), vehicle: Klucel (hydroxypropylcellulose) (HPC)): 98 % of control [survivor count not shown] | T/C (T/C endpoint: mean survival time, dose: 0.03 mg/kg/injection, schedule: Q01DX010 (iv), vehicle: Klucel (hydroxypropylcellulose) (HPC)): 103 % of control [survivor count not shown] | T/C (T/C endpoint: mean survival time, dose: 0.05 mg/kg/injection, schedule: Q01DX010 (iv), vehicle: Klucel (hydroxypropylcellulose) (HPC)): 98 % of control [survivor count not shown] | T/C (T/C endpoint: mean survival time, dose: 0.05 mg/kg/injection, schedule: Q01DX010 (sc), vehicle: Klucel (hydroxypropylcellulose) (HPC)): 106 % of control [survivor count not shown] | T/C (T/C endpoint: mean survival time, dose: 0.1 mg/kg/injection, schedule: Q01DX010 (ip), vehicle: Klucel (hydroxypropylcellulose) (HPC)): 98 % of control [survivor count not shown] | T/C (T/C endpoint: mean survival time, dose: 0.1 mg/kg/injection, schedule: Q01DX010 (iv), vehicle: Klucel (hydroxypropylcellulose) (HPC)): 99 % of control [survivor count not shown] | T/C (T/C endpoint: mean survival time, dose: 0.1 mg/kg/injection, schedule: Q01DX010 (oral), vehicle: Klucel (hydroxypropylcellulose) (HPC)): 100 % of control [survivor count not shown] | T/C (T/C endpoint: mean survival time, dose: 0.1 mg/kg/injection, schedule: Q01DX010 (sc), vehicle: Klucel (hydroxypropylcellulose) (HPC)): 91 % of control [survivor count not shown] | T/C (T/C endpoint: mean survival time, dose: 0.2 mg/kg/injection, schedule: Q01DX010 (im), vehicle: Klucel (hydroxypropylcellulose) (HPC)): 89 % of control [survivor count not shown] | T/C (T/C endpoint: mean survival time, dose: 0.2 mg/kg/injection, schedule: Q01DX010 (ip), vehicle: Klucel (hydroxypropylcellulose) (HPC)): 135 % of control [survivor count not shown] | T/C (T/C endpoint: mean survival time, dose: 0.2 mg/kg/injection, schedule: Q01DX010 (iv), vehicle: Klucel (hydroxypropylcellulose) (HPC)): 93 % of control [survivor count not shown] | T/C (T/C endpoint: mean survival time, dose: 0.2 mg/kg/injection, schedule: Q01DX010 (oral), vehicle: Klucel (hydroxypropylcellulose) (HPC)): 102 % of control [survivor count not shown] | T/C (T/C endpoint: mean survival time, dose: 0.2 mg/kg/injection, schedule: Q01DX010 (sc), vehicle: Klucel (hydroxypropylcellulose) (HPC)): 102 % of control [survivor count not shown] | T/C (T/C endpoint: mean survival time, dose: 0.4 mg/kg/injection, schedule: Q01DX010 (im), vehicle: Klucel (hydroxypropylcellulose) (HPC)): 105 % of control [survivor count not shown] | T/C (T/C endpoint: mean survival time, dose: 0.4 mg/kg/injection, schedule: Q01DX010 (ip), vehicle: Klucel (hydroxypropylcellulose) (HPC)): 167 % of control [survivor count not shown] | T/C (T/C endpoint: mean survival time, dose: 0.4 mg/kg/injection, schedule: Q01DX010 (iv), vehicle: Klucel (hydroxypropylcellulose) (HPC)): 98 % of control [survivor count not shown] | T/C (T/C endpoint: mean survival time, dose: 0.4 mg/kg/injection, schedule: Q01DX010 (oral), vehicle: Klucel (hydroxypropylcellulose) (HPC)): 98 % of control [survivor count not shown] | T/C (T/C endpoint: mean survival time, dose: 0.8 mg/kg/injection, schedule: Q01DX010 (im), vehicle: Klucel (hydroxypropylcellulose) (HPC)): 118 % of control [survivor count not shown] | T/C (T/C endpoint: mean survival time, dose: 0.8 mg/kg/injection, schedule: Q01DX010 (ip), vehicle: Klucel (hydroxypropylcellulose) (HPC)): 150 % of control [survivor count not shown] | T/C (T/C endpoint: mean survival time, dose: 0.8 mg/kg/injection, schedule: Q01DX010 (iv), vehicle: Klucel (hydroxypropylcellulose) (HPC)): 107 % of control [survivor count not shown] | T/C (T/C endpoint: mean survival time, dose: 0.8 mg/kg/injection, schedule: Q01DX010 (oral), vehicle: Klucel (hydroxypropylcellulose) (HPC)): 99 % of control [survivor count not shown] | T/C (T/C endpoint: mean survival time, dose: 0.8 mg/kg/injection, schedule: Q01DX010 (sc), vehicle: Klucel (hydroxypropylcellulose) (HPC)): 107 % of control [survivor count not shown] | T/C (T/C endpoint: mean survival time, dose: 1.6 mg/kg/injection, schedule: Q01DX010 (im), vehicle: Klucel (hydroxypropylcellulose) (HPC)): 132 % of control [survivor count not shown] | T/C (T/C endpoint: mean survival time, dose: 1.6 mg/kg/injection, schedule: Q01DX010 (ip), vehicle: Klucel (hydroxypropylcellulose) (HPC)): 164 % of control [survivor count not shown] | T/C (T/C endpoint: mean survival time, dose: 1.6 mg/kg/injection, schedule: Q01DX010 (iv), vehicle: Klucel (hydroxypropylcellulose) (HPC)): 133 % of control [survivor count not shown] | T/C (T/C endpoint: mean survival time, dose: 1.6 mg/kg/injection, schedule: Q01DX010 (sc), vehicle: Klucel (hydroxypropylcellulose) (HPC)): 132 % of control [survivor count not shown] | T/C (T/C endpoint: mean survival time, dose: 3.2 mg/kg/injection, schedule: Q01DX010 (oral), vehicle: Klucel (hydroxypropylcellulose) (HPC)): 127 % of control [survivor count not shown] | T/C (T/C endpoint: median survival time, dose: 0.06 mg/kg/injection, schedule: Q03HX008 (ip), vehicle: saline): 118 % of control [survivor count not shown]
